Results reported in paper doi:10.1101/2023.01.07.523072.
No constants are given. Whether binding was seen depends on the method and setting. Binding seen in cells or lysates may run through a third protein. For part of these data: A result given as binding can be weak or reduced; the word gives no strength. For part of these data: Tags and fused reporters may be left off the sequences shown.

Chains of the proteins cited; added tags and fusions are not shown. Lines headed by an entry give the natural chain unless they say otherwise; changes in a name come on top.
UniProt O48726: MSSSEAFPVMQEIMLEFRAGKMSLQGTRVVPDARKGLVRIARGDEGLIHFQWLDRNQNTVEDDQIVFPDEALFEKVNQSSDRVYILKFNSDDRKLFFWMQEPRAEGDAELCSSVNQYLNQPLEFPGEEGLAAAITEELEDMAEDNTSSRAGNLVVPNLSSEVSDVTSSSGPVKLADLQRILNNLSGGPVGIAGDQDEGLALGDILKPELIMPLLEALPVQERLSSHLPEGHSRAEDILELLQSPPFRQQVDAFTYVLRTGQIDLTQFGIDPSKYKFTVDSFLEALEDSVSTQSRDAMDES
UniProt Q9SGW3: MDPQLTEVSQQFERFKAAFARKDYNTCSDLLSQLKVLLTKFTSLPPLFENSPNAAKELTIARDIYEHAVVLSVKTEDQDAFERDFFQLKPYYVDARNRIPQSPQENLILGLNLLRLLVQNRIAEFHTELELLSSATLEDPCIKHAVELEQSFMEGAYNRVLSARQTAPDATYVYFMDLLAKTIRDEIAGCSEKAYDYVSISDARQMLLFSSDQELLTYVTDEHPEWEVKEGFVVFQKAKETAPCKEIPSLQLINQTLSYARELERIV
UniProt P54609: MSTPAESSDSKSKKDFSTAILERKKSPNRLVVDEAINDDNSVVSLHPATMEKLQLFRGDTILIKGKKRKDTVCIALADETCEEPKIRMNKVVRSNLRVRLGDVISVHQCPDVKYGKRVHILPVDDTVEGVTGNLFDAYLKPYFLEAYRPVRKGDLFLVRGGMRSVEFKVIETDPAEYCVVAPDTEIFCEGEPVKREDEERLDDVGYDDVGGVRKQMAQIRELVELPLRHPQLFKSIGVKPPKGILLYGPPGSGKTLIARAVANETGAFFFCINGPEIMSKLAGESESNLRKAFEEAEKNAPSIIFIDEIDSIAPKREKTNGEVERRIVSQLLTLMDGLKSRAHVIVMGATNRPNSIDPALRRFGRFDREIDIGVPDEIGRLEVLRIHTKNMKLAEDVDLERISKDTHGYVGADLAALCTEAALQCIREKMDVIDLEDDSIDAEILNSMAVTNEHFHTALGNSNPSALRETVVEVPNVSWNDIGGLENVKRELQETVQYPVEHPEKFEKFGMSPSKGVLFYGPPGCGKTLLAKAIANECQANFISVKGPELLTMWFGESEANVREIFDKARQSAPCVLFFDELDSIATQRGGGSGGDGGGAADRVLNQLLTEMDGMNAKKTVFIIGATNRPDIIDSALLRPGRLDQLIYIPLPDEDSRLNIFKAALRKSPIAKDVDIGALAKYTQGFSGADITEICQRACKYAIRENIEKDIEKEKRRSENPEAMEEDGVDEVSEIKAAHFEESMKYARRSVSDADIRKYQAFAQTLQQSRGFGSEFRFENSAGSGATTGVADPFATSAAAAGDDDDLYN
UniProt P82874: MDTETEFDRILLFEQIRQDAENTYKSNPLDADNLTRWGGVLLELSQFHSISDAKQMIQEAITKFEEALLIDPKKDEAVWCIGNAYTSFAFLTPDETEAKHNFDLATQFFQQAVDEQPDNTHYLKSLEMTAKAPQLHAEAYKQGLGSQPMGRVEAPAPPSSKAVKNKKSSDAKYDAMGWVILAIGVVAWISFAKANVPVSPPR

How the values were obtained:
Test in all cases: split reporter
[1] = molecular target: T1, nY-Toc33 (Arabidopsis thaliana) (UniProt O23680)
T1 sequence: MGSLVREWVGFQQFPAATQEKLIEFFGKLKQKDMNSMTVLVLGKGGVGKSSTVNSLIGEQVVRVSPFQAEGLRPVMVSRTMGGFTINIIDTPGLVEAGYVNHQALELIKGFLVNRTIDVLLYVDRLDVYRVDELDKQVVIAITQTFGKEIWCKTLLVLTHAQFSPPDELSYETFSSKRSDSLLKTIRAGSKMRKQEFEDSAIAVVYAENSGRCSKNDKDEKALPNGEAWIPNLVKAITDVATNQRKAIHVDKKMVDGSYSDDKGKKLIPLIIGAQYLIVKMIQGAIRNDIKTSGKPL

[2] = molecular target: T2, nY-PAP2 (Arabidopsis thaliana) (UniProt Q9LMG7)
T2 sequence: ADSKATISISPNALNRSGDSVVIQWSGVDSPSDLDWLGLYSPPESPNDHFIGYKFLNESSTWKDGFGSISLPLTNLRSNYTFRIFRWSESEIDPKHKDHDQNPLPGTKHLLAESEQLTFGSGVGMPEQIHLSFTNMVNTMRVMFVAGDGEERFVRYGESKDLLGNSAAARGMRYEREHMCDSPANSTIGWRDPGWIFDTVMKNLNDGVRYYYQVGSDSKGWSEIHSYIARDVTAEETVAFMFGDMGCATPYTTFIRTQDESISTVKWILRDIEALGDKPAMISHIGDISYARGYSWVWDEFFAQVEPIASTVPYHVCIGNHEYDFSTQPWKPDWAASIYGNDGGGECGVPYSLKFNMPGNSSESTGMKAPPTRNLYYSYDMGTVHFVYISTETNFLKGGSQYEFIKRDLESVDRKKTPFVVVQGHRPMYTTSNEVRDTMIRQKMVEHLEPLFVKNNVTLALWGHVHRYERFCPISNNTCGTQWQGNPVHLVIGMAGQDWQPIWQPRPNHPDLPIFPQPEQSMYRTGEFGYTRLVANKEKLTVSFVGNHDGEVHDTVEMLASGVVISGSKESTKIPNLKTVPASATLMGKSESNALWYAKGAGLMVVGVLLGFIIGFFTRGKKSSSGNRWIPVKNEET

[3] = molecular target: T3, nY-Toc34 (Arabidopsis thaliana) (UniProt Q38906)
T3 sequence: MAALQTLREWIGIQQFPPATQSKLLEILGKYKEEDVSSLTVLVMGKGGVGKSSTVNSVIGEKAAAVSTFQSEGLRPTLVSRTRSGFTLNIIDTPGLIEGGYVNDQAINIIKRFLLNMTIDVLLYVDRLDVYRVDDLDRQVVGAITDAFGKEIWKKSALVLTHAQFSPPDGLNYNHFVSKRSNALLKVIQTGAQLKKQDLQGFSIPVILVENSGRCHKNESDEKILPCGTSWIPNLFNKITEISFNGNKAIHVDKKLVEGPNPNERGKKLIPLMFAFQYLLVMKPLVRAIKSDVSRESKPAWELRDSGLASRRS

[4] = molecular target: T4, nY-Tom20-2 (Arabidopsis thaliana) (UniProt P82873)
T4 sequence: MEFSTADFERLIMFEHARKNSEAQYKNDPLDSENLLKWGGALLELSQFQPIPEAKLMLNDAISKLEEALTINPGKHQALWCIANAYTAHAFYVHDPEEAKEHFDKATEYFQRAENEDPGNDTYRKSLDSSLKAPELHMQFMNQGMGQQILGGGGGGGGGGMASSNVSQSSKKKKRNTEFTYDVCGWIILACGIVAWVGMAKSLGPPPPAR

[5] = molecular target: T5, nY-Tom20-4 (Arabidopsis thaliana) (UniProt P82805)
T5 sequence: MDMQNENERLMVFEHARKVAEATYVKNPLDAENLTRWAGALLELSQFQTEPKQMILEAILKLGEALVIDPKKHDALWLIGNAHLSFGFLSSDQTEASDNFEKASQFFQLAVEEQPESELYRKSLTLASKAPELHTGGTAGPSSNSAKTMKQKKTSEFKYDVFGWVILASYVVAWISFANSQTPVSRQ

[6] = molecular target: T6, SUPPRESSOR OF PPI1 LOCUS1 (SP1), BiFC fusion (Arabidopsis thaliana) (UniProt Q8L7N4)
T6 sequence: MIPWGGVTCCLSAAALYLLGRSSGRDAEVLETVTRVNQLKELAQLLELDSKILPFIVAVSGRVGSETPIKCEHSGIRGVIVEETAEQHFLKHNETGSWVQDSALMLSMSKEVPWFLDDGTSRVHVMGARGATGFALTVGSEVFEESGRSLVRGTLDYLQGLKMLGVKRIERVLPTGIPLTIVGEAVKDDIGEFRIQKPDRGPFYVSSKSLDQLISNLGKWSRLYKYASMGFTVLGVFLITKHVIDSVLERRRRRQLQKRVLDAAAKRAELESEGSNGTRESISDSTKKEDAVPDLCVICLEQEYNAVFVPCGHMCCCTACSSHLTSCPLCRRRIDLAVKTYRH

[7] = molecular target: RPN13a, BiFC fusion (Arabidopsis thaliana) (UniProt O48726)
[8] = molecular target: T7, RPN10, BiFC fusion (Arabidopsis thaliana) (UniProt P55034)
T7 sequence: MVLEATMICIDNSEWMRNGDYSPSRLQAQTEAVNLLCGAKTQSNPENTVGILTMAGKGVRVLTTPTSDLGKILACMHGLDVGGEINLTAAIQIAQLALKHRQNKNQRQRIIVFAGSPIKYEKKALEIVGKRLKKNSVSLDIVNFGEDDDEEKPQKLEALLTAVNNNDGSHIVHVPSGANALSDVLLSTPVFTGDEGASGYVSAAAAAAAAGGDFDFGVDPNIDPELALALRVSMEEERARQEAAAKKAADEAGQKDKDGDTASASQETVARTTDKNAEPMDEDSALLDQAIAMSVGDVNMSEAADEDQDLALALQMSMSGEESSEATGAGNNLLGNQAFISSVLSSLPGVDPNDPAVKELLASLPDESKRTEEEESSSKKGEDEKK

[9] = molecular target: RPN12, BiFC fusion (Arabidopsis thaliana) (UniProt Q9SGW3)
[10] = molecular target: CDC48A, BiFC fusion of Figure 5A (Arabidopsis thaliana) (UniProt P54609)
[11] = molecular target: T8, SP2, BiFC fusion (Arabidopsis thaliana) (UniProt Q5PP51)
T8 sequence: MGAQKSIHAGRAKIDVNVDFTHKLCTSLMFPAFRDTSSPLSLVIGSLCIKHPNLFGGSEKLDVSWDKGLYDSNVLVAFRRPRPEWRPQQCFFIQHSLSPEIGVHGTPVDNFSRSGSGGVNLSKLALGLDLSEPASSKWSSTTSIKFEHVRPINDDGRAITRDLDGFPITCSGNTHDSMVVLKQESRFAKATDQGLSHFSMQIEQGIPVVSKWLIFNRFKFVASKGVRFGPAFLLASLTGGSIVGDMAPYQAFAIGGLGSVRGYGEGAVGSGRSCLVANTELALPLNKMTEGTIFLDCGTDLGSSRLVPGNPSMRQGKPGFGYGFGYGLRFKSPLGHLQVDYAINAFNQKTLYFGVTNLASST

[12] = molecular target: T9, REGULATORY PARTICLE NON-ATPASE6 (RPN6), BiFC fusion (Arabidopsis thaliana) (UniProt Q9LP45)
T9 sequence: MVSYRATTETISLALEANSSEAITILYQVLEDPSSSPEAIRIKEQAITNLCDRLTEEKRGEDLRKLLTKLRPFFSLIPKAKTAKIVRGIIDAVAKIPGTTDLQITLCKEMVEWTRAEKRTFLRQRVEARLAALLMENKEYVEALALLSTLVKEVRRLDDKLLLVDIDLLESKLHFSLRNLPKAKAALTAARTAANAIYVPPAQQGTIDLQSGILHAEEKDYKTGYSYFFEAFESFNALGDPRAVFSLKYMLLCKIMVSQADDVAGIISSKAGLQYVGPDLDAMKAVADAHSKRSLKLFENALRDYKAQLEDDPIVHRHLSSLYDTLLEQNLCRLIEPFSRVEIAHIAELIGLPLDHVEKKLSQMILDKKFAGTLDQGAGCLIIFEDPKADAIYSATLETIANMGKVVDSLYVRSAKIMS

[13] = molecular target: TMD-truncated Toc33, BiFC fusion (Arabidopsis thaliana) (UniProt O23680)
[14] = molecular target: TMD-truncated Tom20-2, BiFC fusion (Arabidopsis thaliana) (UniProt P82873)
[15] = molecular target: TMD-truncated Tom20-4, BiFC fusion (Arabidopsis thaliana) (UniProt P82805)
[16] = molecular target: nY-Tom20-3 (Arabidopsis thaliana) (UniProt P82874)
[17] = molecular target: TMD-truncated Toc34, BiFC fusion (Arabidopsis thaliana) (UniProt Q38906)
[18] = molecular target: TMD-truncated PAP2, BiFC fusion (Arabidopsis thaliana) (UniProt Q9LMG7)
[19] = molecular target: TMD-truncated Tom20-3, BiFC fusion (Arabidopsis thaliana) (UniProt P82874)

Substance	binding [1]	binding [2]	binding [3]	binding [4]	binding [5]	binding [6]	binding [7]	binding [8]	binding [9]	binding [10]	binding [11]	binding [12]	binding [13]	binding [14]	binding [15]	binding [16]	binding [17]	binding [18]	binding [19]
TTOP fused to cY at its C terminus (Arabidopsis thaliana)	no binding	no binding	no binding	no binding	no binding	–	–	–	–	–	–	–	–	–	–	–	–	–	–
TTOP, BiFC fusion of Figure 5A (from UniProt F4K1H0)	–	–	–	–	–	binds	binds	binds	binds	binds	no binding	binds	–	–	–	–	–	–	–
cY-TTOP (TTOP fused to the C-terminal half of YFP, free C terminus) (from UniProt F4K1H0)	binds	binds	binds	binds	binds	–	–	–	–	–	–	–	no binding	no binding	no binding	binds	no binding	no binding	no binding
